The list shows a part of the results. Many values rest on one well or one pass, so single values are uncertain.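 The apoptosis fraction was the count of cleaved-PARP antibody-stained nuclei relative to all DNA-stained nuclei, imaged in 1,536-well plates. Screening doses were set so most cells survived, and baseline and induced cleaved-PARP levels vary greatly across cell lines.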

The assay has as its system SkMel5. Nature of the assay: cleaved PARP positive nuclei fraction relative to DMSO control; melanoma cells; higher = more apoptosis. Conditions: library dose: low library concentration; 72 h.
In the case of `COc1cc([C@@H]2c3cc4c(cc3[C@@H](O[C@@H]3O[C@@H]5CO[C@@H](C)O[C@H]5[C@H](O)[C@H]3O)[C@H]3COC(=O)[C@H]23)OCO4)cc(OC)c1O` [etoposide] + C/C(O)=C(\C#N)C(=O)Nc1cc(Br)ccc1Br [LFM-A13] (first compound 0.02 µM, partner dose 2 µM), the “cleaved PARP positive nuclei fraction” value came to 139%. In the case of `Cn1cnc2c(F)c(Nc3ccc(Br)cc3Cl)c(C(=O)NOCCO)cc21` [selumetinib] + O=C(Oc1ccc([N+](=O)[O-])cc1)N1CCC(C(O)(c2ccc3c(c2)OCO3)c2ccc3c(c2)OCO3)CC1 [JZL184] (first compound 0.015 µM, partner dose 1 µM), the “cleaved PARP positive nuclei fraction” value is 158%. For the compound `Nc1ncn([C@H]2C[C@H](O)[C@@H](CO)O2)c(=O)n1` [decitabine] + O=C(Oc1ccc([N+](=O)[O-])cc1)N1CCC(C(O)(c2ccc3c(c2)OCO3)c2ccc3c(c2)OCO3)CC1 [JZL184] (first compound 0.1 µM, partner dose 1 µM), the “cleaved PARP positive nuclei fraction” value worked out at 87.7%.

Turning to `C[As](C)SC[C@H](NC(=O)CC[C@H](N)C(=O)O)C(=O)NCC(=O)O` [Darinaparsin] + O=C(O)c1ccc(-c2c[nH]c3ncc(-c4ccccc4)cc23)cc1C1CCCC1 [GSK650394] (first compound 0.4 µM, partner dose 0.16 µM), the “cleaved PARP positive nuclei fraction” value was determined as 43.5%.

On to `O=C(Nc1cc(C(F)(F)F)cc(C(F)(F)F)c1)c1cc(Cl)ccc1O` + O=C(Oc1ccc([N+](=O)[O-])cc1)N1CCC(C(O)(c2ccc3c(c2)OCO3)c2ccc3c(c2)OCO3)CC1 [JZL184] (first compound 0.016 µM, partner dose 1 µM), for which the “cleaved PARP positive nuclei fraction” value was 85.6%.

(Values after the supplement of paper PMC4604168 (melanoma cell lines).)
